# Some of the results follow.
# Chains of the proteins cited; added tags and fusions are not shown.
# UniProt Q0JBA9, entry or part of it: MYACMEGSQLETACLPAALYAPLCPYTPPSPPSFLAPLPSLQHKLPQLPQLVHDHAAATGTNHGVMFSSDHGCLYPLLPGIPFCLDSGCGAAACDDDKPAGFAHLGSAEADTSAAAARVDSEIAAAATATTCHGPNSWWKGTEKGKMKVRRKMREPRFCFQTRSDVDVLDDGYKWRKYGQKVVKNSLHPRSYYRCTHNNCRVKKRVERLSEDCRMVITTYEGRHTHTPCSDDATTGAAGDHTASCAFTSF
# Biological target: OsWRKY34 (Oryza sativa, UniProt Q0JBA9 1-250)
# Assay: protein-binding microarray (RPBM); PBS, 2% BSA, 51.3 ng/ul salmon testes DNA, 50 uM zinc acetate, 200 nM TF, 25 C, 1 h; high values mean tight binding
# Conditions: protein: recombinant; tags: N-terminal polyhistidine and DsRed monomer fusion (pET32a); label: CyDye5-dUTP incorporated in the synthesized complementary strand; 3' TTTTT single-stranded linker to array surface; dsDNA, one strand shown
# How it was run: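 The binding signal is fluorescence intensity per array feature (arbitrary units). Readings came from an Axon 4000B scanner after a washed, 2% BSA-blocked, double-stranded custom Agilent array had been incubated for 1 h at 25 °C with 200 nM protein and 50 µM zinc acetate. The protein was a Ni–NTA-purified transcription factor fused N-terminally to polyhistidine and DsRed, expressed in E. coli BL21-CodonPlus.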
row,Sequence,binding signal
1,ATTGCCCAACCTCTGCTTCTGTTGGCCCAAGAAGAATCCCCGGAGTCACCTAGTGCAG,8110 fluorescence intensity (a.u.)
2,GGCCAATAAGTTCCAGTTCTCTTCTTAAGGCCCATTAGACCGGAGTCACCTAGTGCAG,61800 fluorescence intensity (a.u.)
3,CATCAGTCACACGACCTTCAAGGCCATAGCCTGCCTGTCTCGGAGTCACCTAGTGCAG,8040 fluorescence intensity (a.u.)
4,TCAATTTCCAACAACGGCACTCCTCCGCCCTATTCGATCCCGGAGTCACCTAGTGCAG,10100 fluorescence intensity (a.u.)
5,CCTTGGGTTCGACGCCCTTGACAACCTGGTATCACGTTCCCGGAGTCACCTAGTGCAG,8550 fluorescence intensity (a.u.)
6,TCTCTTCATCGTCGTCAGCGGCCTTGTATATTAGTGGTCACGGAGTCACCTAGTGCAG,9350 fluorescence intensity (a.u.)
7,TCAACTGCACCAGCATCCCAACTGTGGTTTGTAAGATTCTCGGAGTCACCTAGTGCAG,8910 fluorescence intensity (a.u.)
8,GTTGCAGGGTGGGGATTGTTAAATTTATTGTTTGGCTGGACGGAGTCACCTAGTGCAG,16600 fluorescence intensity (a.u.)
9,GCTGCTGATGCGAGGTCAAAATTCTCGTCTACCTGATTCTCGGAGTCACCTAGTGCAG,8900 fluorescence intensity (a.u.)
10,ATTTACGTTTGGAACTGTATATTACTTGTCGTTTTGTGTACGGAGTCACCTAGTGCAG,8200 fluorescence intensity (a.u.)
11,TAATTCTCGCGTTTCATTATTTTCTTTCTTTTTTAGTCTACGGAGTCACCTAGTGCAG,12000 fluorescence intensity (a.u.)
12,CTAGACTTTGCTTTCGCTGCGCTCTCTCTCTCTCTCACCGCGGAGTCACCTAGTGCAG,8520 fluorescence intensity (a.u.)
13,GGCCCATCACACGCGGCGCCTCTCTCTCCCTCTCCCCAAACGGAGTCACCTAGTGCAG,8410 fluorescence intensity (a.u.)
14,GGTTGATTTATGGGCCTTTTGTTTCTTCTCGGCGGCGCGTCGGAGTCACCTAGTGCAG,10100 fluorescence intensity (a.u.)
15,AATAGTGGATTAAGGGTGTGTTTAGTTGGGGAAAAGGAAACGGAGTCACCTAGTGCAG,9360 fluorescence intensity (a.u.)
16,CAATATGGCCATTGCCCGTTCTTTTTATTGTTCGGCTTCACGGAGTCACCTAGTGCAG,11300 fluorescence intensity (a.u.)
17,ACATTATCATGTCACGTCGTCGCGTAATCATGGGTACCCACGGAGTCACCTAGTGCAG,10400 fluorescence intensity (a.u.)
18,GTCCCACTATATATACTCGAAGCCGTCACCTACCTTCCCACGGAGTCACCTAGTGCAG,8190 fluorescence intensity (a.u.)
19,GGTTTATTTTGACTACAATCTGAGCAGACCCTTATTAAGTCGGAGTCACCTAGTGCAG,8170 fluorescence intensity (a.u.)
20,GGAAAAAGTTACAATCTTGTAACCACATTGCTTGGCCATTCGGAGTCACCTAGTGCAG,8070 fluorescence intensity (a.u.)
21,TTCCTTGCTCTCTGGGCTATTTTCAGCCCATTTTATTCTTCGGAGTCACCTAGTGCAG,10500 fluorescence intensity (a.u.)

# Three entries from above in a different format:
row	Sequence	binding signal
19	GGTTTATTTTGACTACAATCTGAGCAGACCCTTATTAAGTCGGAGTCACCTAGTGCAG	8170 fluorescence intensity (a.u.)
20	GGAAAAAGTTACAATCTTGTAACCACATTGCTTGGCCATTCGGAGTCACCTAGTGCAG	8070 fluorescence intensity (a.u.)
21	TTCCTTGCTCTCTGGGCTATTTTCAGCCCATTTTATTCTTCGGAGTCACCTAGTGCAG	10500 fluorescence intensity (a.u.)

# Later entries

row,Sequence,binding signal
1,ACTCGGACTATTTTGGCTTCTATCATCAAATGCTATTGGCCGGAGTCACCTAGTGCAG,8090 fluorescence intensity (a.u.)
2,AGTTTTACACTTGTATTCCTGACCTGTTTCTTGTCTAGCACGGAGTCACCTAGTGCAG,9110 fluorescence intensity (a.u.)
3,CCGCGCGATCTCGCCGTCTCGTCTCTCGCCATCGCAGATACGGAGTCACCTAGTGCAG,8380 fluorescence intensity (a.u.)
4,TTCACGTCCACTTCACCGGAGTTGCCATTTCCAATCCCAACGGAGTCACCTAGTGCAG,10400 fluorescence intensity (a.u.)
5,TCACCTCCTGCATCACCAGCACCACTCTCCGCCTCCCTGGCGGAGTCACCTAGTGCAG,9420 fluorescence intensity (a.u.)
6,CCCTCCCGTCAGTTGACCGTTAGTTGACCGTGTATTTTCTCGGAGTCACCTAGTGCAG,12200 fluorescence intensity (a.u.)
7,TTTCGATAATCATCAGCATACATTTTTCCTTTTTCTGGGGCGGAGTCACCTAGTGCAG,8650 fluorescence intensity (a.u.)
8,ATATATGTATGTATGTGTGTGTGTATTACGTCAAAGAATACGGAGTCACCTAGTGCAG,8240 fluorescence intensity (a.u.)
9,TTCAGTAGTAACCCACTTGTCCCCGTTTGACCGCTTCGTCCGGAGTCACCTAGTGCAG,10800 fluorescence intensity (a.u.)
10,AGTCCTTGTCTATTCCGGGCTAGGGTTTTCGGTTCAAAACCGGAGTCACCTAGTGCAG,10200 fluorescence intensity (a.u.)
11,ATCTCGGCTGCCCAAATTCCTGAAATCAACTGTCTATCCTCGGAGTCACCTAGTGCAG,8160 fluorescence intensity (a.u.)
12,GCGTATTGACTGTTGAGCCCGGCCCGTATGAATCCCTTGTCGGAGTCACCTAGTGCAG,10700 fluorescence intensity (a.u.)
13,ATGATACAATGGCCTAACTCTGCTCTGATACCAAATGATACGGAGTCACCTAGTGCAG,8460 fluorescence intensity (a.u.)
14,TCAGTGAATAAATCGCTAGCCAACTCGCTCCCGGGTTTTGCGGAGTCACCTAGTGCAG,8920 fluorescence intensity (a.u.)
15,ATCCAAACCAATGTCCGTTAATCAGAGTTACTTACCATCACGGAGTCACCTAGTGCAG,8600 fluorescence intensity (a.u.)
16,ATCTTCTTCCAGTCTCCTCTTGATCTGTTCAGCAAACCCGCGGAGTCACCTAGTGCAG,8140 fluorescence intensity (a.u.)
17,ACCCCGACCCCTTCAATCGCGCCCGCCTCAGCCGCCTTCTCGGAGTCACCTAGTGCAG,12600 fluorescence intensity (a.u.)
18,GTGGTCGTGTGGATATACCTTCTCTTCGGTGGTGGAATTGCGGAGTCACCTAGTGCAG,9320 fluorescence intensity (a.u.)
19,AACAGTTGACGCAGGTGGCAGAGTTGCTAGTTCTTGCCCTCGGAGTCACCTAGTGCAG,61500 fluorescence intensity (a.u.)
20,CACTTGATTAATTTATCCTCTCCTCGCGTCGCTGTCGCGTCGGAGTCACCTAGTGCAG,8320 fluorescence intensity (a.u.)
21,TGGTTGTGTTTGCTCTGGATTCCATCTTCCTCCTCAGCTCCGGAGTCACCTAGTGCAG,8270 fluorescence intensity (a.u.)
